PubChem BioAssay AID1224830 – NIAID – 2016
This is one part, drawn at random, of about 18,000 reagents tested. About 2,900 of all reagents (16%) were called active. 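Calls are made per well; low scores hint the gene aids the LPS response, high scores that it dampens it.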 Unmarked entries are inactive. Repeated entries: four replicate wells of each siRNA pool.

Test: 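Regulators of TLR4 signalling towards TNF-alpha in macrophage-like cells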 (primary screen)
Cells: human THP-1 monocytic leukaemia cells, TNF dual-luciferase reporter clone, PMA-differentiated to macrophage-like cells
Reagent: siRNA pool against human genes, 50 nM
Duration: LPS for 4 h, given about 3 days after siRNA transfection
Treatment: bacterial LPS (TLR4 ligand), 10 ng/ml
Measurement: 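TNF firefly reporter luminescence divided by renilla, normalised to the plate median, then turned into a robust z-score for each replicate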
Scale: TNF reporter robust z-score: higher = stronger TNF reporter response to LPS
Hit rule: 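Each well counts as active if its z-score is over 2.8 or under -1.5; controls are left without a call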

gene	TNF reporter robust z-score
UGT3A2	1.44
UGT3A2	1.14
UGT3A2	0.9
UGT3A2	1.11
PLAT	-0.41
PLAT	-0.99
PLAT	-0.42
PLAT	0.25
RGL1	0.84
RGL1	3.31 (active)
RGL1	2.11
RGL1	2.47
FYRD1	-0.22
FYRD1	4.15 (active)
FYRD1	0.74
FYRD1	0.31
C1orf52	-1.42
C1orf52	-0.48
C1orf52	0.32
C1orf52	0.38
GNB4	0.74
GNB4	-0.32
GNB4	-0.4
GNB4	-0.82
SERPINA7	0.09
SERPINA7	0.64
SERPINA7	-0.8
SERPINA7	-0.27
METTL5	0.88
METTL5	1.69
METTL5	0.93
METTL5	1.54

Copied from the listing (3 entries):
gene	TNF reporter robust z-score
UGT3A2	1.44
UGT3A2	1.14
UGT3A2	0.9

Next records follow.
gene	TNF reporter robust z-score
PRR7	0.1
PRR7	0.5
PRR7	-0.36
PRR7	0.71
RASEF	-0.21
RASEF	0.07
RASEF	-0.04
RASEF	-0.32
SCGN	-0.68
SCGN	-1.01
SCGN	-0.03
SCGN	-0.43
CDADC1	-1.77 (active)
CDADC1	-1.47
CDADC1	-0.41
CDADC1	-0.05
